Over roughly 1,600 compounds, “Hit score” has its median near 0.13; the highest 2% begin near 0.46. Some of the results follow.
system: SARS-CoV-2; assay: Antiviral activity against SARS-CoV-2 (USA-WA1/2020 strain) measured by imaging in HRCE cells at MOI 0.4 after 96 hrs (reported as hit score from 0-1 for on-disease vs off-disease activity: scores >0.6 considered hits); type: functional, Homo sapiens

Row | SMILES | Hit score
1 | Oc1ccc(Cl)cc1 [PARACHLOROPHENOL] | 0.02412
2 | CC(=O)O[C@]1(C(C)=O)CC[C@H]2[C@@H]3C=C(C)C4=CC(=O)CC[C@@H]4[C@H]3CC[C@@]21C [NOMEGESTROL ACETATE] | 0.2782
3 | Cc1ccnc(NC(=O)C(C)c2cccc(C(=O)c3ccccc3)c2)c1 (configuration not stated) [PIKETOPROFEN] | 0.1264
4 | CC[C@H]1OC(=O)[C@H](C)[C@@H](O[C@H]2C[C@@](C)(OC)[C@@H](O)[C@H](C)O2)[C@H](C)[C@@H](O[C@@H]2O[C@H](C)C[C@H](N(C)C)[C@H]2O)[C@](C)(O)C[C@@H](C)[C@@H]2N[C@@H](COCCOC)O[C@H]([C@H]2C)[C@]1(C)O [DIRITHROMYCIN] | 0.05651
5 | CCCc1cc(C(N)=S)ccn1 [PROTIONAMIDE] | 0.1497
6 | CO[C@H]1/C=C/O[C@@]2(C)Oc3c(C)c(O)c4c(O)c(c(/C=N/N5CCN(C6CCCC6)CC5)c(O)c4c3C2=O)NC(=O)/C(C)=C\C=C\[C@H](C)[C@H](O)[C@@H](C)[C@@H](O)[C@@H](C)[C@H](OC(C)=O)[C@@H]1C [RIFAPENTINE] | 0.1445
7 | Cn1c(=O)c2nc[nH]c2n(C)c1=O.O [THEOPHYLLINE] | 0.2338
8 | CC1=C(C)C(=O)C(CCCCCCCCCC[P+](c2ccccc2)(c2ccccc2)c2ccccc2)=CC1=O | 0.06177
9 | COC(=O)[C@H]1[C@H]2C[C@@H]3c4[nH]c5cc(OC)ccc5c4CCN3C[C@H]2C[C@@H](OC(=O)c2cc(OC)c(OC)c(OC)c2)[C@@H]1OC [RESERPINE] | 0.08143
10 | CNC1CCCN(c2c(F)cc3c(=O)c(C(=O)O)cn(C4CC4)c3c2OC)C1 (configuration not stated) [BALOFLOXACIN] | 0.2575
11 | O=P1(NCCCl)OCCCN1CCCl (configuration not stated) [IFOSFAMIDE] | 0.08977
12 | CN1CCN(CC/C=C2/c3ccccc3Sc3ccc(S(=O)(=O)N(C)C)cc32)CC1 [THIOTHIXENE] | 0.03687
13 | CC(C)(CO)[C@@H](O)C(=O)NCCC(=O)NCCSSCCNC(=O)CCNC(=O)[C@H](O)C(C)(C)CO [PANTETHINE] | 0.0893
14 | C=CCN1CC[C@]23c4c5ccc(O)c4O[C@H]2[C@@H](OCCOCCOCCOCCOCCOCCOCCOC)CC[C@@]3(O)[C@H]1C5 [NALOXEGOL] | 0.106
15 | Cc1cn[nH]c1 [FOMEPIZOLE] | 0.2114
16 | NC(=O)CN1CCCC1=O | 0.2052
17 | CC[N+](C)(C)c1cccc(O)c1 [EDROPHONIUM] | 0.0571
18 | N=C1CCCN1Cc1[nH]c(=O)[nH]c(=O)c1Cl | 0.09228
19 | CN(C)c1cc(NC(=O)CNC(C)(C)C)c(O)c2c1C[C@H]1C[C@H]3[C@H](N(C)C)C(O)=C(C(N)=O)C(=O)[C@@]3(O)C(O)=C1C2=O [TIGECYCLINE] | 0.1712
20 | C[C@@H](NCCCc1cccc(C(F)(F)F)c1)c1cccc2ccccc12 | -0.07555
21 | CC(=O)Nc1cccc(-n2c(=O)n(C3CC3)c(=O)c3c(Nc4ccc(I)cc4F)n(C)c(=O)c(C)c32)c1 [TRAMETINIB] | -0.4857
22 | CCCOc1cc(N)ccc1C(=O)OCCN(CC)CC [PROPOXYCAINE] | 0.0698
23 | OC(Cn1cncn1)(Cn1cncn1)c1ccc(F)cc1F [FLUCONAZOLE] | 0.1493

Row | SMILES | Hit score
24 | CCOC(=O)Nc1ccc2c(c1)N(C(=O)CCN(CC)CC)c1ccccc1S2 [ETHACIZINE] | 0.2302
25 | CCN[C@H]1CN(CCCOC)S(=O)(=O)c2sc(S(N)(=O)=O)cc21 [BRINZOLAMIDE] | 0.2322
26 | CC(C)c1c(C(=O)Nc2ccccc2)c(-c2ccccc2)c(-c2ccc(F)cc2)n1CC[C@@H](O)C[C@@H](O)CC(=O)O [ATORVASTATIN] | 0.08829
27 | Cc1ncc(C[n+]2csc(CCO)c2C)c(N)n1 [THIAMINE ION] | 0.2886
28 | NS(=O)(=O)c1cc(C2(O)NC(=O)c3ccccc32)ccc1Cl (configuration not stated) [CHLORTHALIDONE] | 0.1518
29 | O=C(O)CCCCCCCC(=O)O [AZELAIC ACID] | 0.004337
30 | Clc1ccc2c(N3CCN(CCCN4CCN(c5ccnc6cc(Cl)ccc56)CC4)CC3)ccnc2c1.O=P(O)(O)O [PIPERAQUINE PHOSPHATE] | 0.02101
31 | Cc1ccc(C(=O)c2ccc(CC(=O)O)n2C)cc1 [TOLMETIN] | 0.1977
32 | CC(=O)O[C@H]1C[C@@H]2CC[C@@H]3[C@H](CC[C@@]4(C)[C@H]3C[C@H](N3CC[N+](C)(C)CC3)[C@@H]4OC(C)=O)[C@@]2(C)C[C@@H]1N1CC[N+](C)(C)CC1 [PIPECURONIUM] | 0.1412
33 | CCCCN(CCCC)CCCOC(=O)c1ccc(N)cc1 [BUTACAINE] | 0.05399
34 | CC1(C)C(/C=C/C=C/C=C/C=C2\N(CCCCS(=O)(=O)[O-])c3ccc4ccccc4c3C2(C)C)=[N+](CCCCS(=O)(=O)[O-])c2ccc3ccccc3c21.[Na+] [INDOCYANINE GREEN] | 0.2338
35 | CN(C)CCCN1c2ccccc2Sc2ccc(C(F)(F)F)cc21 [TRIFLUPROMAZINE] | -0.07276
36 | Nc1c(CC(=O)O)cccc1C(=O)c1ccccc1 [AMFENAC] | 0.1058
37 | COc1ccc([C@@H]2CC(=O)c3c(O)cc(O)cc3O2)cc1O [HESPERETIN] | 0.1002
38 | Cc1cc(-c2ccc(/N=N/c3ccc4c(S(=O)(=O)[O-])cc(S(=O)(=O)[O-])c(N)c4c3O)c(C)c2)ccc1/N=N/c1ccc2c(S(=O)(=O)[O-])cc(S(=O)(=O)[O-])c(N)c2c1O.[Na+].[Na+].[Na+].[Na+] [EVANS BLUE] | 0.2486
39 | CCOC(=O)c1cc(C#N)c(N2CCC(C(=O)NS(=O)(=O)Cc3ccccc3)CC2)nc1C | 0.3229
40 | CC(N/C(=N\C#N)Nc1ccncc1)C(C)(C)C (configuration not stated) [PINACIDIL ANHYDROUS] | 0.1708
41 | CC1(C)OC(=O)C(OCC2CC2)=C1c1ccc(S(C)(=O)=O)cc1 [FIROCOXIB] | 0.09893
42 | CCN(CC)CCOC(=O)C1(C2CCCCC2)CCCCC1 [DICYCLOMINE] | 0.1568
43 | CCCCOCCOCCOCc1cc2c(cc1CCC)OCO2 [PIPERONYL BUTOXIDE] | 0.1894
44 | C[N+]1(C)[C@@H]2CC[C@H]1C[C@@H](OC(=O)C(O)c1ccccc1)C2.[Br-] (some centres not stated) [HOMATROPINE METHYLBROMIDE] | 0.03421
45 | CC(=O)Oc1ccccc1C(=O)Nc1ncc([N+](=O)[O-])s1 [NITAZOXANIDE] | 0.4584
46 | Cl.Cl.c1ccc(C(NCCNC(c2ccccc2)c2ccccc2)c2ccccc2)cc1 | -0.03001

Among those listed so far, these contain a tert-butyl group:
Row | SMILES | Hit score
19 | CN(C)c1cc(NC(=O)CNC(C)(C)C)c(O)c2c1C[C@H]1C[C@H]3[C@H](N(C)C)C(O)=C(C(N)=O)C(=O)[C@@]3(O)C(O)=C1C2=O [TIGECYCLINE] | 0.1712
40 | CC(N/C(=N\C#N)Nc1ccncc1)C(C)(C)C (configuration not stated) [PINACIDIL ANHYDROUS] | 0.1708

Following part:

Row | SMILES | Hit score
47 | O=C(Nc1ccc(Cl)cc1)Nc1ccc(Cl)c(Cl)c1 [TRICLOCARBAN] | 0.4616
48 | CC[N+](C)(CC)CCOC(=O)C(O)(c1ccccc1)C1CCCCC1 (configuration not stated) [OXYPHENONIUM] | 0.1874
49 | COc1cc(C(=O)OCCCN2CCCN(CCCOC(=O)c3cc(OC)c(OC)c(OC)c3)CC2)cc(OC)c1OC [DILAZEP] | 0.1035
50 | O=C(O)c1cn(-c2ccc(F)cc2)c2cc(N3CCNCC3)c(F)cc2c1=O [SARAFLOXACIN] | 0.1378
51 | O=C(O)Cc1ccc(-c2ccccc2)cc1 [FELBINAC] | 0.2446
52 | O=C(NC[C@H]1CN(c2ccc(N3CCOCC3=O)cc2)C(=O)O1)c1ccc(Cl)s1 [RIVAROXABAN] | 0.01318
53 | Cc1nnc(C(=O)NC(C)(C)c2nc(C(=O)NCc3ccc(F)cc3)c(O)c(=O)n2C)o1 | 0.0199
54 | CCCC(=O)O[C@]1(C(=O)COC(C)=O)CC[C@H]2[C@@H]3C[C@H](F)C4=CC(=O)C=C[C@]4(C)[C@@]3(F)[C@@H](O)C[C@@]21C [DIFLUPREDNATE] | 0.1389
55 | CN1CCN(C2=Nc3ccccc3Oc3ccc(Cl)cc32)CC1 [LOXAPINE] | 0.2116
56 | COc1c2occc2cc2ccc(=O)oc12 [METHOXSALEN] | 0.1698
57 | N=C(NCCCCCCNC(=N)NC(=N)Nc1ccc(Cl)cc1)NC(=N)Nc1ccc(Cl)cc1 [CHLORHEXIDINE] | 0.08739
58 | N#Cc1ccc(C(c2ccc(C#N)cc2)n2cncn2)cc1 [LETROZOLE] | 0.07947
59 | C[C@H]1[C@H](OC(=O)CCC(=O)O)O[C@@H]2O[C@@]3(C)CC[C@H]4[C@H](C)CC[C@@H]1[C@@]24OO3 [ARTESUNATE] | 0.2142
60 | COc1cc(C(=O)N2CCOCC2)cc(OC)c1OC [TRIMETOZINE] | 0.2022
61 | O=C(O)COc1nn(Cc2ccccc2)c2ccccc12 [BENDAZAC] | 0.1415
62 | O=C(O)COc1cccc(-c2ocnc2-c2nc(-c3ccccc3)c(-c3ccccc3)o2)c1 | 0.03267
63 | O=[N+]([O-])/N=C1\NCCN1Cc1ccc(Cl)nc1 [IMIDACLOPRID] | 0.158
64 | CCc1nc(C(N)=O)c(Nc2ccc(N3CCC(N4CCN(C)CC4)CC3)c(OC)c2)nc1NC1CCOCC1 [GILTERITINIB] | 0.351
65 | O=C(O)c1ccccc1NCCc1ccccc1 [ENFENAMIC ACID] | 0.2813
66 | COc1cc2nc(N3CCN(C(=O)C4CCCO4)CC3)nc(N)c2cc1OC (configuration not stated) [TERAZOSIN] | 0.09742
67 | Nc1ccc(S(=O)(=O)Nc2ccc(Cl)nn2)cc1 [SULFACHLORPYRIDAZINE] | 0.07178

Source: ChEMBL document CHEMBL4303122, “Identification of potential treatments for COVID-19 through artificial intelligence-enabled phenomic analysis of human cells infected with SARS-CoV-2” (2020)
